According to US5668109A, “Peptides for inhibiting pepsin release” (Societe de Conseils de Recherches et D'Applications …, priority 1994, dated 1997):
At least one peptide structure holds a part that was inferred or is arguable (an end, a ring closure or a residue). Square brackets hold non-standard residues; d marks the D form. Ends that are not written are not given here. Peptide text beside a SMILES is read from it.

System: secretion of pepsin
Experiment: Pepsin secretion stimulated by pentagastrin (PG) and VIP in cats with chronic gastric fistulas
Type: in vivo, cat
Settings: VIP + PG + peptide 100 pmol/kg/h
[1] = Table 6, mean of 9 cats, VIP + PG alone mean 3.131

CC[C@H](C)[C@H](NC(=O)[C@H](CO)NC(=O)[C@H](CO)NC(=O)[C@H](CCCCN)NC(=O)CNC(=O)[C@@H]1CCCN1C(=O)[C@@H](N)CCC(=O)O)C(=O)N[C@@H](CC(C)C)C(=O)N[C@@H](CCC(N)=O)C(=O)N[C@@H](Cc1c[nH]cn1)C(=O)N[C@@H](CCC(=O)O)C(=O)N[C@@H](CCCNC(=N)N)C(=O)N1CCC[C@H]1C(=O)N[C@H](C(=O)N[C@H](C(=O)N[C@@H](CCCCN)C(=O)N1CCC[C@H]1C(=O)N[C@@H](CCC(N)=O)C(=O)N[C@H](C)C(N)=O)[C@@H](C)O)C(C)C [P^D10, Glu--Pro--Gly--Lys--Ser--Ser--Ile--Leu--Gln--His--Glu--Arg--Pro--Val--Thr--Lys--Pro--Gln-D-Ala--NH2] (H-EPGKSSILQHERPVTKPQ[dA]-NH2)
amount of pepsin secreted, Mean (Table 4, mean of 9 cats, VIP + PG alone mean 3.171): 2.310 mg/15 min

C[C@@H](NC(=O)[C@H](CCC(N)=O)NC(=O)[C@@H]1CCCN1C(=O)[C@H](CCCCN)NC(=O)[C@@H](N)[C@@H](C)O)C(N)=O [P^D11, Thr--Lys--Pro--Gln-D-Ala--NH2] (H-TKPQ[dA]-NH2)
amount of pepsin secreted, Mean [1]: 2.463 mg/15 min

CC(=O)NCCCC[C@H](NC(=O)[C@@H](N)[C@@H](C)O)C(=O)N1CCC[C@H]1C(=O)N[C@@H](CCC(N)=O)C(=O)N[C@H](C)C(N)=O [P^D12, Thr-(acetyl)Lys--Pro--Gln-D-Ala--NH2] (H-TK(Ac)PQ[dA]-NH2)
amount of pepsin secreted, Mean [1]: 2.178 mg/15 min

HERPVTKPQA-NH2 [Peptide P8, His--Glu--Arg--Pro--Val--Thr--Lys--Pro--Gln--Ala--NH2, reference compound]
amount of pepsin secreted, Mean (Table 5, mean of tests, VIP + PG alone mean 3.449): 3.255 mg/15 min

PVTKPQA-NH2 [Peptide P1, Pro--ValThrLysProGlnAlaNH2, reference compound]
amount of pepsin secreted, Mean (Table 1, mean of tests, VIP + PG alone mean 2.607): 2.547 mg/15 min
